Our source for the binding values is paper PMC8051872.

In the experiment the target is MBP-CUB1-2-His (C1275S) (human) (UniProt Q76LX8). Nature of the experiment: SEC; gel filtration on HiPrep 26/60 Sephacryl S-200HR in 20 mM Hepes (pH 7.5), 150 mM NaCl, 5 mM CaCl2, 5 mM maltose, after Ni2+-chelating chromatography; monodisperse peaks; both purified. For orientation: In gel filtration, larger molecules generally elute earlier.

These are yes or no findings as the source states them, for the method shown. Sequences can lack the tags named with a protein.

B1: MBP-CUB1-2-His (C1275S) (domain or fragment, UniProt Q76LX8 1189-1427)
chain: SSACGRQHLEPTGTIDMRGPGQADCAVAIGRPLGEVVTLRVLESSLNCSAGDMLLLWGRLTWRKMCRKLLDMTFSSKTNTLVVRQRSGRPGGGVLLRYGSQLAPETFYRECDMQLFGPWGEIVSPSLSPATSNAGGCRLFINVAPHARIAIHALATNMGAGTEGANASYILIRDTHSLRTTAFHGQQVLYWESESSQAEMEFSEGFLKAQASLRGQYWTLQSWVPEMQDPQSWKGKEGT
modifications: N-linked glycans on Asn1235 and Asn1354
In the case of B1, the binding entry is “no binding”.
